Assay results published in PubChem BioAssay AID463206 (Broad Institute, 2010).
The source made the active and inactive calls.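 The calls were made as follows: active = caspase luminescence falls with dose and the half-maximal concentration AC50 from the fitted curve is at or below a set limit; inconclusive = flat fit at 30 to 70% signal loss, or invalid fit; inactive = AC50 above the limit, or signal rises instead.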

System: INS-1E cytokine-induced caspase-3/7, Caspase-Glo luminescence, 48 h
Assay: suppression of cytokine-driven beta-cell apoptosis – INS-1E rat cells, luminescence, orthogonal assay for beta-cell apoptosis protection project, dose response (AID 463206)

With `COc1ccccc1C(=O)NNC(=S)NC(=O)c1ccco1` the AC50 was inactive: > 26 µM.
